Chains of the proteins cited; added tags and fusions are not shown.
UniProt Q96KQ7: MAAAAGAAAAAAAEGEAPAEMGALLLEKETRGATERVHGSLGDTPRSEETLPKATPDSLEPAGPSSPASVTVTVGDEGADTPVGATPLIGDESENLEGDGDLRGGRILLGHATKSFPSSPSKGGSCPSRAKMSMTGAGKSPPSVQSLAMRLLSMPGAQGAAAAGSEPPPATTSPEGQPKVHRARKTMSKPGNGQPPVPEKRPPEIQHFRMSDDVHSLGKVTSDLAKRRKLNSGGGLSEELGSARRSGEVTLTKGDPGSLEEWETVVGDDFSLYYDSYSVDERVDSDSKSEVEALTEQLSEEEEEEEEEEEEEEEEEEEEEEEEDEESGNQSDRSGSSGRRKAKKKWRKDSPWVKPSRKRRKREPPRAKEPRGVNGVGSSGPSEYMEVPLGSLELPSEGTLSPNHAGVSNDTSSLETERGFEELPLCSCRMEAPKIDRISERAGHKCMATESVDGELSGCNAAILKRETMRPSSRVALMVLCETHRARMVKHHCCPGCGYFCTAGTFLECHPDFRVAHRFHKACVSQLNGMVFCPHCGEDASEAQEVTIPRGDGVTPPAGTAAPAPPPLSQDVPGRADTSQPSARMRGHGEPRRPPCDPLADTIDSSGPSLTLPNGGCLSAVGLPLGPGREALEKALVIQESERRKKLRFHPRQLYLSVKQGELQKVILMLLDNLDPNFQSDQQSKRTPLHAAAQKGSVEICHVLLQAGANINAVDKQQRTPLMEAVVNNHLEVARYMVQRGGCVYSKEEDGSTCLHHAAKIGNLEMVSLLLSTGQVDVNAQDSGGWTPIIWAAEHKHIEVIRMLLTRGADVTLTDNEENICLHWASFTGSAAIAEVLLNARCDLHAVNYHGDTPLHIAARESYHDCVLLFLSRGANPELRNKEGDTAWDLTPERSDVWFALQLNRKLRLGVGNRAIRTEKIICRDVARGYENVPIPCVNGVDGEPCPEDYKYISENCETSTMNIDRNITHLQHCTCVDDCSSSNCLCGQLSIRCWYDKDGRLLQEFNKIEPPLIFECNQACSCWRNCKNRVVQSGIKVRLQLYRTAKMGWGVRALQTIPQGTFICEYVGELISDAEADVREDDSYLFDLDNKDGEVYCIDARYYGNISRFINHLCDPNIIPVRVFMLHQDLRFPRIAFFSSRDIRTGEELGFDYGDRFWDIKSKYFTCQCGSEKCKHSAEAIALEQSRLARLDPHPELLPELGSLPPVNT
UniProt Q96JM2: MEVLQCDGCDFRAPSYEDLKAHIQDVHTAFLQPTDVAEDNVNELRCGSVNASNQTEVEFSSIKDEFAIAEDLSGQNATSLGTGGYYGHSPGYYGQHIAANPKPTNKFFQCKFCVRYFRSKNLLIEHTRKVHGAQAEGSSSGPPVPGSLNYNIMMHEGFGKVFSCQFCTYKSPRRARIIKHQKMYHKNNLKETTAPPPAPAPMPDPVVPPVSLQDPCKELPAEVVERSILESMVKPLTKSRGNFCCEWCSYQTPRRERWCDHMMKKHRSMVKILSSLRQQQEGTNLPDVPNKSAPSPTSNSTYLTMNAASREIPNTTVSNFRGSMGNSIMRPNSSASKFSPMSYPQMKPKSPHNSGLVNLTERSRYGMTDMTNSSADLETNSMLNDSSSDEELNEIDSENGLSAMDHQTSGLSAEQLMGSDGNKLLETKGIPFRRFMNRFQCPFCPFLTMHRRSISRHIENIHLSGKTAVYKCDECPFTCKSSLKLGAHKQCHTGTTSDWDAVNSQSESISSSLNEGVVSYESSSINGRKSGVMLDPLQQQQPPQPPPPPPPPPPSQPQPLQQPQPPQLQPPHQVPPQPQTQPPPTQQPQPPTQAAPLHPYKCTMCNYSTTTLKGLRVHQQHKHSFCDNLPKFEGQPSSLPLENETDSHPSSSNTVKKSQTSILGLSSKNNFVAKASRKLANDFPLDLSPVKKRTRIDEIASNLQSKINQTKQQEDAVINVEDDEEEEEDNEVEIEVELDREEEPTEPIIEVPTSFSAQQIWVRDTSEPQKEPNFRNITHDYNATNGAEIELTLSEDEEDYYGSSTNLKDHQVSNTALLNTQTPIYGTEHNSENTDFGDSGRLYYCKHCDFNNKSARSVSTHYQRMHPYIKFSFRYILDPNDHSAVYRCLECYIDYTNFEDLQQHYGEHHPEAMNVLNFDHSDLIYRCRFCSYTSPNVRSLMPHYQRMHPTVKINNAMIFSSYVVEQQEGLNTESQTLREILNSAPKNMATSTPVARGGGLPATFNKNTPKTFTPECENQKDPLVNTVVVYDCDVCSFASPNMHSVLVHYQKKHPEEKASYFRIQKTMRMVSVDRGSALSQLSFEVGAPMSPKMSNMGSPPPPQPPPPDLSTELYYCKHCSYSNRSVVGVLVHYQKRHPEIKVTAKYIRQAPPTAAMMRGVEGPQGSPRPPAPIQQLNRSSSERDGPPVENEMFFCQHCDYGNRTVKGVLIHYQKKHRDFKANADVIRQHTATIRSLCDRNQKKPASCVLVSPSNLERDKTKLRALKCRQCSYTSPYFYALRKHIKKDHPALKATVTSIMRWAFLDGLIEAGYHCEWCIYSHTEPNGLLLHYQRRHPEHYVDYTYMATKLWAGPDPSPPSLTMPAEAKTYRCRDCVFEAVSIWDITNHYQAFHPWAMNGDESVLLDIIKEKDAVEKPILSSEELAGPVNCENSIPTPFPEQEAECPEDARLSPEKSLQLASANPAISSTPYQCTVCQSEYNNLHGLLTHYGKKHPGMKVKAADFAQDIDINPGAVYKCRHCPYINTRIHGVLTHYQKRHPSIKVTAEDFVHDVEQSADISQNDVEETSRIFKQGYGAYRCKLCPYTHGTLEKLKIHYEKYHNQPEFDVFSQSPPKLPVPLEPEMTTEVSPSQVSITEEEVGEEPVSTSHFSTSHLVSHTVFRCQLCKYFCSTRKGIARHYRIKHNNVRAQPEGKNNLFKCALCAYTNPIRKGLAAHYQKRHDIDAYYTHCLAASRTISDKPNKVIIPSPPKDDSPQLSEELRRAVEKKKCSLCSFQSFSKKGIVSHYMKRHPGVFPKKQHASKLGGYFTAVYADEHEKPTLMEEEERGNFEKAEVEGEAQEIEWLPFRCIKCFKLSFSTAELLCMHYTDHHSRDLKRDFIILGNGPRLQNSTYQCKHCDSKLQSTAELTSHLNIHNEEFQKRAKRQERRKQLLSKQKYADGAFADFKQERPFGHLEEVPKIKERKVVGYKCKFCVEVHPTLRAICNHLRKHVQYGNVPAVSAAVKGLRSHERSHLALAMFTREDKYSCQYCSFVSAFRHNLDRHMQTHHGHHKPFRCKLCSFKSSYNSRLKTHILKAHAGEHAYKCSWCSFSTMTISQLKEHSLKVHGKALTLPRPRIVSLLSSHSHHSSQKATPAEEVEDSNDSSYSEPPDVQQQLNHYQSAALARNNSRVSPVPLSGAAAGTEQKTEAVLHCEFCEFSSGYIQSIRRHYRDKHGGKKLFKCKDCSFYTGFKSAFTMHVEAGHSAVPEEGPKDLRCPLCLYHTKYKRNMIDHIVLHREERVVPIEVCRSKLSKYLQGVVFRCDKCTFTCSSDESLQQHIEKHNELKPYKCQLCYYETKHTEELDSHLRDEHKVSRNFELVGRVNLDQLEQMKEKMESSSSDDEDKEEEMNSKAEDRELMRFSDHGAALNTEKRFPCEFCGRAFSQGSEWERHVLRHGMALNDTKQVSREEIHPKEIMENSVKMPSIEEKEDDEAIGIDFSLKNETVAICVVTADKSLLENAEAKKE
UniProt O95785: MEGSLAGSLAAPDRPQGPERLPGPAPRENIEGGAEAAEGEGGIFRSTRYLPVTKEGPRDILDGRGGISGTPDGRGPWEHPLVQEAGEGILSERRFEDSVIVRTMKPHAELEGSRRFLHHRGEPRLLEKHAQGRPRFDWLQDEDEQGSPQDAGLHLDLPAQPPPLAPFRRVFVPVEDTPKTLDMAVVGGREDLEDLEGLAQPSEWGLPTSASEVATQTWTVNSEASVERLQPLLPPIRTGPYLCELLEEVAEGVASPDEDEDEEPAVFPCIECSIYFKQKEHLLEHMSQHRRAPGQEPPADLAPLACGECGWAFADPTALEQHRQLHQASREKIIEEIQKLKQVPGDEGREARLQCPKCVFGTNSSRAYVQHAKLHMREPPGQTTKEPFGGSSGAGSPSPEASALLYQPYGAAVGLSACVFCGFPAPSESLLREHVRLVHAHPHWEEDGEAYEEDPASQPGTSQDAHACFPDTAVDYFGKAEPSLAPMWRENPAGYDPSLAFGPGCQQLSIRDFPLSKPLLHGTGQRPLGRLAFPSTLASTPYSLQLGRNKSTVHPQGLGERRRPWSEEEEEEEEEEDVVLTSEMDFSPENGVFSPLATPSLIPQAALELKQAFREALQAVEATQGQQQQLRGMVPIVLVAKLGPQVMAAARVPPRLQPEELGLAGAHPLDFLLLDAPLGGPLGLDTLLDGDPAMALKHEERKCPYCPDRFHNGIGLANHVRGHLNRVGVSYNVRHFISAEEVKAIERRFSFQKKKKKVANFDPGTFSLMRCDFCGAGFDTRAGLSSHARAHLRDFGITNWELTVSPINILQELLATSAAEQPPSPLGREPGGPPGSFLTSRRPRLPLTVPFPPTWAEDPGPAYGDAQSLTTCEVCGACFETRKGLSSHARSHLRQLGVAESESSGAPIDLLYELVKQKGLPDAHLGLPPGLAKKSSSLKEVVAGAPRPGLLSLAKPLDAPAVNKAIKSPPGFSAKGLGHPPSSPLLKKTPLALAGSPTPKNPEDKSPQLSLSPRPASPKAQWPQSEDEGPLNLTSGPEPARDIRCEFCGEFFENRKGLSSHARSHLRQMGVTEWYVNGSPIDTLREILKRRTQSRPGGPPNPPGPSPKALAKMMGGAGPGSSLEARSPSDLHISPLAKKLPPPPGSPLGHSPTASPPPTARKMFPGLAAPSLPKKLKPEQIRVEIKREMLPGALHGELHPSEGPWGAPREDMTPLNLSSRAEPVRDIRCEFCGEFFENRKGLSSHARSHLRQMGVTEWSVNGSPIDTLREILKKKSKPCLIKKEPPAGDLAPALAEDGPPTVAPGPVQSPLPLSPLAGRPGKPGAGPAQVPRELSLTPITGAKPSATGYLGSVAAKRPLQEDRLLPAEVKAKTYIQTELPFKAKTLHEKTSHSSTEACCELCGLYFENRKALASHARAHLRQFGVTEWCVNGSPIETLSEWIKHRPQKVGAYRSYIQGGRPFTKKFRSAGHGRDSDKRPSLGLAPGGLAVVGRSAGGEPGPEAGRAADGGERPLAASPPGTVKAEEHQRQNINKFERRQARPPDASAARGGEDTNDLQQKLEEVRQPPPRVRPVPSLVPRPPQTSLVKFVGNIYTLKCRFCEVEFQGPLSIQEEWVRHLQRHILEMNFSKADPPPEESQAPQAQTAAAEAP

In article PMC13462943:

Target: G9a, endogenous in iPSCs (human (endogenous in iPSCs)) (UniProt Q96KQ7)
Assay: co-IP + affinity purification with mass spectrometry; rabbit anti-G9a on Dynabeads Protein A; whole cell extracts (100 µg) of control and patients' iPSCs, 45 min at 4 °C; washes with 200 mM NaCl, 1.5 mM MgCl2, 20 mM EDTA; eluate read by western blot (G9a, GLP) and LC-MS/MS; anti-PFAS IgG as negative control

Q: “ZNF462, endogenous in iPSCs (from UniProt Q96JM2 1-2506)” was tested. Which binding did it give?
A: binds

Q: Which binding does the source give for “WIZ, endogenous in iPSCs (from UniProt O95785 1-1651)” here?
A: binds

Results are given in words; binding and its absence hold for the method and conditions named. Binding seen in cells or lysates may run through a third protein. These calls come from enrichment with a bait or labelling near it, and not all partners need be listed.
